Assay [1] has as its target Cks1-Skp2-Skp1 complex (GST-Skp2-Skp1-His-Cks1) (UniProt Q13309). Kind of assay: fluorescence polarisation.
For assay [2] the target is unchanged. Kind of assay: ITC.

In publication doi:10.1101/2023.04.27.535981 one finds binding data, which are given here for two molecules.

Results are given in words; binding and its absence hold for the method and conditions named. Some entries that bind do so weakly or less than the wild type.

On to AGSVEQTPKK (TAMRA-Ahx (amino hexanoic acid) on the N-terminus; T(phos): phosphothreonine) [TAMRA-labelled 10-residue phosphorylated p27 peptide (TAMRA-Ahx-AGSVEQT(phos)PKK)], for which the binding entry in assay [1] and in assay [2] was “binds” throughout.
As to RQIKIWFQNRRMKWKK [cell-penetrating peptide Antp (…)], the binding result in assay [2] was “no binding”.
